Measurements reported in PubChem BioAssay AID743121 (NCATS, 2013)

- Aim: 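Genes whose silencing strengthens cell killing by camptothecin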 (primary screen)
- System: MDA-MB-231 cells, a human breast cancer line
- Reagent: single siRNA against human genes, 20 nM siRNA (0.8 pmol per well)
- Timing: 120 h (drug added 48 h after transfection, read 72 h later)
- Conditions: camptothecin 20 nM (about EC30) for 72 h; vehicle 0.1% DMSO in parallel plates
- Read-out: 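Cell viability by ATP luminescence (CellTiter-Glo) as % of non-targeting siRNA wells, and the log2 ratio of viability without drug over viability with camptothecin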
- Reading the numbers: log2 vehicle/camptothecin viability: higher = stronger sensitisation to camptothecin; viability with camptothecin: higher = more viable cells
- Units: viability with camptothecin in % of control
- Active means: 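Active genes have an RSA gene-level p-value below 0.001, computed from the ratios of their separate siRNAs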
Shown is one part, drawn at random, of about 26,000 deposited reagents. 167 of all reagents (0.63%) were called active. 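Calls are per gene from RSA p-values that are not deposited; an individual active-marked siRNA can sensitise only weakly.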 A number with no mark means an inactive call. The numbers tell different reagents against one gene apart. Further read-outs or replicates are left out here.

How did the screen score FBXL12 #1?
log2 vehicle/camptothecin viability: -0.208; viability with camptothecin: 86.9

What did the screen give for FBXL12 #2?
log2 vehicle/camptothecin viability: -0.229; viability with camptothecin: 86.6

For FBXL12 #3, what was measured?
log2 vehicle/camptothecin viability: 0.367; viability with camptothecin: 29.4

With FBXL12 #4, what was measured?
log2 vehicle/camptothecin viability: -0.139; viability with camptothecin: 99.4

With ODAD1 #1, what does the deposit list?
log2 vehicle/camptothecin viability: -0.43; viability with camptothecin: 51.1

For ODAD1 #2, what was measured?
log2 vehicle/camptothecin viability: -0.552; viability with camptothecin: 83.4

Which result is listed for ODAD1 #3?
log2 vehicle/camptothecin viability: -0.0162; viability with camptothecin: 13.7

How did the screen score ODAD1 #4?
log2 vehicle/camptothecin viability: -0.276; viability with camptothecin: 109

What is on record for ESM1 #1?
log2 vehicle/camptothecin viability: -0.108; viability with camptothecin: 81.1

Which result is listed for ESM1 #2?
log2 vehicle/camptothecin viability: -0.012; viability with camptothecin: 31.8

Which result is listed for ESM1 #3?
log2 vehicle/camptothecin viability: 0.0161; viability with camptothecin: 95.5

What is on record for ESM1 #4?
log2 vehicle/camptothecin viability: -0.191; viability with camptothecin: 61.1

For SCN11A #1, how do the results read?
log2 vehicle/camptothecin viability: -0.102; viability with camptothecin: 73.9

Which result is listed for SCN11A #2?
log2 vehicle/camptothecin viability: -0.381; viability with camptothecin: 74

For SCN11A #3, how do the results read?
log2 vehicle/camptothecin viability: 0.259; viability with camptothecin: 30.9

Which result is listed for SCN11A #4?
log2 vehicle/camptothecin viability: -0.517; viability with camptothecin: 96.4

What is on record for CDCA8 #1?
log2 vehicle/camptothecin viability: -0.385; viability with camptothecin: 35.9

With CDCA8 #2, how do the results read?
log2 vehicle/camptothecin viability: -0.213; viability with camptothecin: 99.4

For CDCA8 #3, what does the deposit list?
log2 vehicle/camptothecin viability: -0.24; viability with camptothecin: 117

For FXN #1, how do the results read?
log2 vehicle/camptothecin viability: -0.117; viability with camptothecin: 132

With FXN #2, what does the deposit list?
log2 vehicle/camptothecin viability: 0.175; viability with camptothecin: 74.9

For FXN #3, what does the deposit list?
log2 vehicle/camptothecin viability: 0.835; viability with camptothecin: 22.6

With GCLC #1, what does the deposit list?
log2 vehicle/camptothecin viability: -0.107; viability with camptothecin: 84.9

For GCLC #2, what was measured?
log2 vehicle/camptothecin viability: -0.14; viability with camptothecin: 110

What did the screen give for GCLC #3?
log2 vehicle/camptothecin viability: -0.375; viability with camptothecin: 121

What did the screen give for RPE65 #1?
log2 vehicle/camptothecin viability: -0.113; viability with camptothecin: 110

What did the screen give for RPE65 #2?
log2 vehicle/camptothecin viability: -0.169; viability with camptothecin: 63.9

With RPE65 #3, how do the results read?
log2 vehicle/camptothecin viability: -0.328; viability with camptothecin: 76.4

What is on record for RPE65 #4?
log2 vehicle/camptothecin viability: -0.00421; viability with camptothecin: 58.6

With PMS2P1, what was measured?
log2 vehicle/camptothecin viability: -0.528; viability with camptothecin: 66.3

For AQP3 #1, what does the deposit list?
log2 vehicle/camptothecin viability: -0.22; viability with camptothecin: 52.8

With AQP3 #2, how do the results read?
log2 vehicle/camptothecin viability: 0.00406; viability with camptothecin: 87.5

What did the screen give for AQP3 #3?
log2 vehicle/camptothecin viability: -0.527; viability with camptothecin: 15.9

For AQP3 #4, what was measured?
log2 vehicle/camptothecin viability: -0.115; viability with camptothecin: 65.7

With EGLN3 #1, how do the results read?
log2 vehicle/camptothecin viability: -0.466; viability with camptothecin: 89.7

What did the screen give for EGLN3 #2?
log2 vehicle/camptothecin viability: -0.00189; viability with camptothecin: 65.9

For EGLN3 #3, how do the results read?
log2 vehicle/camptothecin viability: -0.271; viability with camptothecin: 106

What is on record for EGLN3 #4?
log2 vehicle/camptothecin viability: -0.169; viability with camptothecin: 137
